Experimental data as given in US8735129B2, “Ginsenoside glycosidase derived from the genus Terrabacter, and use thereof” (Korea Research Institute of Bioscience and Biotechnology, priority 2009, dated 2014).

Assay type: biochemical
Settings: sodium phosphate buffer
Method: The thermo-dependence of the activity was assayed in 50 mM potassium phosphate buffer at various temperatures ranging from 4 to 90° C. Thermostability was tested by incubating aliquots of the enzyme in 50 mM potassium phosphate buffer for 30 minutes at different temperatures. After cooling the sample on ice for 10 minutes, residual activity was determined by a standard analysis;
The pH effect on the enzymatic activity was measured using 2.0 mM pNPGlc in the following buffer (50 mM):
Buffer: pH range of 2 to 10: KCl—HCl (pH 2), glycine-HCl (pH 3), sodium acetic acid (pH 4 and 5), sodium phosphate (pH 6 and 7), Tris-HCl (pH 8 and 9) and glycine-sodium hydroxide (pH 10).
The enzyme was incubated in each of the above mentioned buffers at 4° C. for 24 hours, and then pHPGlc was analyzed in 50 mM potassium buffer to measure the enzymatic stability according to pH change. The activity was measured by the above mentioned method.
The results were represented as an activity probability obtained at the optimum pH.
The temperature-dependent activity in the 50 mM potassium phosphate buffer was analyzed within the temperature range of 4-90° C. using 2.0 mM pNPGlc at the optimum pH for 5 minutes. […] The sample was cooled in ice for 10 minutes, and the residual activity was measured by pNPGlc analysis.

B1: Bgl-gyp17: recombinant ginsenoside glycosidase from Terrabacter Gsoil 3082, SEQ ID NO. 1, 589 residues (protein, listed as Terrebacter sp.)
chain: MDPYEDPRLPVEVRVEDLLGRLSLEEKVGLMFQTVIEAGSDGTVLEHPGSISKSPTSTVVLDKHLTHFNVHALDDPRMAARWSNALQALAERTPHGIPVTVSTDPRHAFIENVGVSFSAGAFSQWPEPLGLAALRDADAVRRFADIARQEYVAVGIRAALHPTLDLATEPRWARQAGTFGQDPDLVTELGVAYLKGFQGDSLGSGSVACTSKHFPGGGPQKDGEDAHFPYGREQVYPGGRFADHLKPFPPIIEAGTAGIMPYYGMPVDLVVDGVEIEPIGFGYNKQVVTGLLREKLGYDGVVVTDWELVNDNHVGDQVLPARAWGVEHLDPHGRMELILEAGADQFGGEECVEILLDLVAQGRVTEARVDESARRILAVKFRLGLFENPYVDEDEAAATVGRDDFREEGYAAQARSVTVLHHEGGRLPLEHGLRIYAEQVSPEAVARHGKLVDRPEDADVAVVRLTAPFDPRSDLFLESWFHQGSLDFPPGLVARLERIAAVCPLVVDVVLDRPAVLTPLLRFASAVVGSFGSCDDALLDALTGTIAPVGRLPFDLPRSMDQVRAHGEDVPGYDDPLFPFGHGLRLDTE
modifications: PEPTIDE (1)..(589) amino acid sequence of Bgl-gyp17
notes: 1, 589 residues
- pH of maximum activity: 7.0
